CoaBC: 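Enzyme assay of CoaBC with a phosphate dye (Biomol Green) read at 650 nm. Target: Coenzyme A biosynthesis protein CoaBC, Mycobacterium tuberculosis (UniProt P9WNZ1). Compounds at 30 µM. Direction is inferred from only a few compounds that gave an IC50; most scored high, so higher reads as stronger inhibition. Most strong results did not repeat in a second test. Size under these conditions: about 67,000 compounds, about 40 of them at 50% or above in at least one test.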
Leishmania in macrophages: 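Cell assay of Leishmania donovani living inside macrophages; the read-out is not stated. Tested at 30 µM. The record gives no direction; compounds that gave an IC50 in retests scored well above the rest, so higher reads as stronger inhibition. Of about 69,000 compounds tested this way, about 1,000 (1.5%) reached 50% or more in at least one test.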

Amino acid sequences for entries named in this document (tags omitted).
UniProt P9WNZ1, whole entry: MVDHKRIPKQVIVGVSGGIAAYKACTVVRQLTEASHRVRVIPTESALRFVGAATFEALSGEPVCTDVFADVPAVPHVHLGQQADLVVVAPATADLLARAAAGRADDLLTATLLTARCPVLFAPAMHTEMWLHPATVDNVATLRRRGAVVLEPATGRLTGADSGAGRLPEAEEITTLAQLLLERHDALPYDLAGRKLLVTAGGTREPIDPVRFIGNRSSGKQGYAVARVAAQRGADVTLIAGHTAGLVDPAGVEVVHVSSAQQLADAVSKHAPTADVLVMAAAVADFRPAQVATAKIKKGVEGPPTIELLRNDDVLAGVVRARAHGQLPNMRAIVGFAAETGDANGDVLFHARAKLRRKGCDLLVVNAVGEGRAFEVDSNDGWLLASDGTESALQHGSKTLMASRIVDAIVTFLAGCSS

Each number is a percent effect as filed.
The record does not define 0% and 100%; most values in the screen are far below 50% and negative numbers occur (in some assays of this library far below -100).
The compounds are a random part of those screened.
A dash means the value is not listed here; it may have been measured.

structure	CoaBC	Leishmania in macrophages
CCCC1CCCN(C(=O)Nc2ccnc(C(=O)N(C)C)c2)CC1 (stereo unspecified)	6.375%	12.95%
COCC(=O)N1CCC(C(=O)c2cc(C)cnc2N)CC1	2.85%	8.793%
CCS(=O)(=O)N1CCC2(CC(=O)N(c3ccc4c(c3)OCO4)C2)C1 (stereo unspecified)	-1.629%	-20.66%
Cc1cc(CN2CCN(S(=O)(=O)c3c(C)c(Cl)cc(C)c3Cl)CC2)on1	6.901%	9.431%
OCC1(O)CCCN(Cc2ccccc2OCCc2ccccc2)CC1 (stereo unspecified)	2.616%	-10.39%
Cc1ccc(C)c(S(=O)(=O)NC(=O)c2cccc3c2OCCO3)c1	1.921%	-55.28%
CC(C)(CO)CCCNC(=O)NC1(C)Cc2ccccc2C1	4.463%	-54.66%
c1coc(COCc2ncn3c2CN(Cc2cccs2)CCC3)c1	3.807%	-
CC(C)c1nnc2ccc(N3CCCC(C(=O)Nc4nccs4)C3)nn12 (stereo unspecified)	3.535%	28.74%
O=C(Cc1ccc2c(c1)CCC2)NCCNc1cnccn1	-2.738%	38.04%
Cc1noc(C)c1CN1Cc2cnn(C)c2C(COCC2CC2)C1 (stereo unspecified)	4.315%	-
Cc1nc2c(c(NC3CCN(Cc4ccccc4)CC3)n1)CCNCC2	4.087%	8.424%
Cc1ccc(F)cc1S(=O)(=O)N1C[C@@H](C)[C@@](C)(O)C1	-8.571%	0.8572%
O=S(=O)(Nc1cnc(N2CCOCC2)nc1)c1cccc(F)c1	1.631%	26.95%
CN1CC(c2ccccc2)CC12CCN(C(=O)c1cccnc1)CC2 (stereo unspecified)	-7.937%	13.25%
OC1(c2ccccc2F)CCN(Cc2ccccc2N2CCCC2)CC1	-9.202%	-13.12%
CN(Cc1ccco1)C(=O)Nc1ccc(=O)n(C)c1	-3.474%	-9.524%
O=C(NCCO)Nc1ccc(Br)c(F)c1	-0.4878%	-13.44%
Cc1cc(C)n(CC2CCCN2C(=O)c2cnc3n[nH]c(C)c3c2)n1 (stereo unspecified)	-4.021%	-5.749%
CCCc1nnc(N2CCN(c3ccccc3OCC)CC2)o1	8.081%	6.093%
Cc1c[nH]c(C(=O)N2CCCC2c2ccc(C(=O)N3CCSCC3)s2)n1 (stereo unspecified)	-7.744%	1.346%
COc1cc(N2C[C@H]3CN(C(=O)c4cccnc4)C[C@H]3C2)ncn1	-1.525%	-
CCc1n[nH]c(C2CN(C(=O)c3cc4c(s3)CCC4)CCO2)n1 (stereo unspecified)	1.312%	-9.049%
CN(C)c1ncccc1CNS(=O)(=O)c1ccccc1F	0.527%	26.64%
CCCOC(=O)N1CCCC(c2nnc(CN3CCOCC3)n2C)C1 (stereo unspecified)	3.571%	-6.019%
Cc1nn(C)cc1NC(=O)CC1CCN(C(=O)Cc2ccccc2)CC1	10.02%	-17.21%
CC(C)Oc1ccc(CSc2nnc(CN3CCCC3=O)o2)cc1	-12.95%	46.06%
O=S1(=O)COCCN1Cc1ccc(Cl)c(Cl)c1	2.046%	48.84%
CS(=O)(=O)N1CCC2(CCN(C(=O)c3cccnc3)CC2)C1	3.822%	-
CCOC(=O)N1CCN(C(=O)CCn2ccc3c(OC)cccc32)CC1	6.613%	28.43%
CC(C)N(C)Cc1cncc2c1CCN(C1CCOCC1)C2.Cl.Cl.Cl	-	25.99%
Cc1cc(CN(C)Cc2csc(-c3ccc(C(C)C)cc3)n2)no1	6.962%	23.84%
O=C(O)C(F)(F)F.[H][C@@]12C[C@@H](c3nc(C4CC4)cs3)O[C@]1([H])CN(C(=O)c1ccnnc1)C2	-	24.55%
COCCOc1ccc(NC(=O)C2CC(=O)N(C(C)C)C2)cn1 (stereo unspecified)	18.64%	17.18%
O=C(Cc1cn2ccsc2n1)N1CCOCC(O)(CN2CCCC2)C1 (stereo unspecified)	3.213%	3.273%
COc1cccc2c1ccn2CCC(=O)NCCCC(=O)O	1.211%	-9.711%
CCCN1CCCn2nc(CNS(=O)(=O)c3cccc(C#N)c3)cc2C1	1.316%	32.85%
CCn1nc(C)c(C(=O)Nc2ccc3c(c2)C(C)(C)C(=O)N3C)c1C	1.646%	-38.85%
NC(=O)CN1CCC(C(=O)NCCc2nc(-c3ccccc3)cs2)CC1	6.725%	8.579%
CCc1cc(CNC(=O)Nc2cc(F)cc(N3CCCC3)c2)on1	0.2439%	16.55%
CC(C)c1cc(C(=O)N2CCCC(c3cc(=O)nc4n3CCC4)C2)no1 (stereo unspecified)	-1.598%	-36.21%
CC(=O)N1CCN(C(=O)c2ccc(-c3cccc(C)c3)[nH]c2=O)CC1	5.729%	-12.92%

Some entries from above, unchanged:

* CCc1cc(CNC(=O)Nc2cc(F)cc(N3CCCC3)c2)on1 | CoaBC: 0.2439%; Leishmania in macrophages: 16.55%
* CN(Cc1ccco1)C(=O)Nc1ccc(=O)n(C)c1 | CoaBC: -3.474%; Leishmania in macrophages: -9.524%
* CCc1n[nH]c(C2CN(C(=O)c3cc4c(s3)CCC4)CCO2)n1 (stereo unspecified) | CoaBC: 1.312%; Leishmania in macrophages: -9.049%

Data taken from ChEMBL document CHEMBL3988442, “University of Dundee, Small-Polar-MMV Screening Library” (2021).